Like-named read-outs stand apart in the source and are kept apart here.
What was measured:
[1] = humans; cited from earlier work
[2] = rats, cited from earlier work
[3] = Sprague-Dawley, rat, in vivo, po, 3 mg/kg, mean ± SEM; for AUC(0-t): AUC0–t; for AUC(0-t) / AUC(0-inf) / Cmax / Tmax / Vd/F: rats; for AUC(0-inf): AUC0–∞; for half-life: t1/2, rats
[4] = nifedipine suspended in water (10 mg/ml), oral dose 10 mg/kg
[5] = oral nifedipine 3 mg/kg 1 h after SY 0.95 g/kg
[6] = oral nifedipine 3 mg/kg 1 h after SY 1.9 g/kg
[7] = oral nifedipine 3 mg/kg, control

For `COC(=O)C1=C(C)NC(C)=C(C(=O)OC)C1c1ccccc1[N+](=O)[O-]` [Nifedipine, nifedipine, reference compound], the absolute bioavailability [1] is given as 40–50%, the Tmax ([2]; nifedipine prepared using PEG) is given as 15 to 28.2 min and the Tmax [2, 4] is given as 42.6 min. For the same compound, the “half-life (terminal)” value [2, 4] was 9.7 h, the AUC(0-t) [3, 5] was 5200 ± 360 ng·h/mL and the AUC(0-t) [3, 6] was 5300 ± 500 ng·h/mL. It also gave an AUC(0-t) [3, 7] of 4300 ± 300 ng·h/mL, an AUC(0-inf) [3, 5] of 5500 ± 340 ng·h/mL and an AUC(0-inf) [3, 6] of 7100 ± 700 ng·h/mL. It also gave an AUC(0-inf) [3, 7] of 4600 ± 300 ng·h/mL, a Cmax [3, 5] of 3500 ± 340 ng/mL and a Cmax [3, 6] of 2480 ± 110 ng/mL. It also gave a Cmax [3, 7] of 2300 ± 190 ng/mL, a Tmax [3, 5] of 15 min and a Tmax [3, 6] of 19.8 ± 3 min. It also gave a Tmax [3, 7] of 25.2 ± 3 min, a Vd/F [3, 5] of 1.32 ± 0.19 L/kg and a Vd/F [3, 6] of 1.73 ± 0.26 L/kg. The half-life [3, 5] was 102 ± 12 min, the half-life [3, 6] was 174 ± 30 min and the half-life [3, 7] was 72 ± 12 min.

Source: article PMC9298630 (Journal of Food and Drug Analysis, 2018)
